These results are taken from publication doi:10.1101/2024.06.26.600760.

Chains of the proteins cited; added tags and fusions are not shown. Lines headed by an entry give the natural chain unless they say otherwise; changes in a name come on top.
UniProt Q13315: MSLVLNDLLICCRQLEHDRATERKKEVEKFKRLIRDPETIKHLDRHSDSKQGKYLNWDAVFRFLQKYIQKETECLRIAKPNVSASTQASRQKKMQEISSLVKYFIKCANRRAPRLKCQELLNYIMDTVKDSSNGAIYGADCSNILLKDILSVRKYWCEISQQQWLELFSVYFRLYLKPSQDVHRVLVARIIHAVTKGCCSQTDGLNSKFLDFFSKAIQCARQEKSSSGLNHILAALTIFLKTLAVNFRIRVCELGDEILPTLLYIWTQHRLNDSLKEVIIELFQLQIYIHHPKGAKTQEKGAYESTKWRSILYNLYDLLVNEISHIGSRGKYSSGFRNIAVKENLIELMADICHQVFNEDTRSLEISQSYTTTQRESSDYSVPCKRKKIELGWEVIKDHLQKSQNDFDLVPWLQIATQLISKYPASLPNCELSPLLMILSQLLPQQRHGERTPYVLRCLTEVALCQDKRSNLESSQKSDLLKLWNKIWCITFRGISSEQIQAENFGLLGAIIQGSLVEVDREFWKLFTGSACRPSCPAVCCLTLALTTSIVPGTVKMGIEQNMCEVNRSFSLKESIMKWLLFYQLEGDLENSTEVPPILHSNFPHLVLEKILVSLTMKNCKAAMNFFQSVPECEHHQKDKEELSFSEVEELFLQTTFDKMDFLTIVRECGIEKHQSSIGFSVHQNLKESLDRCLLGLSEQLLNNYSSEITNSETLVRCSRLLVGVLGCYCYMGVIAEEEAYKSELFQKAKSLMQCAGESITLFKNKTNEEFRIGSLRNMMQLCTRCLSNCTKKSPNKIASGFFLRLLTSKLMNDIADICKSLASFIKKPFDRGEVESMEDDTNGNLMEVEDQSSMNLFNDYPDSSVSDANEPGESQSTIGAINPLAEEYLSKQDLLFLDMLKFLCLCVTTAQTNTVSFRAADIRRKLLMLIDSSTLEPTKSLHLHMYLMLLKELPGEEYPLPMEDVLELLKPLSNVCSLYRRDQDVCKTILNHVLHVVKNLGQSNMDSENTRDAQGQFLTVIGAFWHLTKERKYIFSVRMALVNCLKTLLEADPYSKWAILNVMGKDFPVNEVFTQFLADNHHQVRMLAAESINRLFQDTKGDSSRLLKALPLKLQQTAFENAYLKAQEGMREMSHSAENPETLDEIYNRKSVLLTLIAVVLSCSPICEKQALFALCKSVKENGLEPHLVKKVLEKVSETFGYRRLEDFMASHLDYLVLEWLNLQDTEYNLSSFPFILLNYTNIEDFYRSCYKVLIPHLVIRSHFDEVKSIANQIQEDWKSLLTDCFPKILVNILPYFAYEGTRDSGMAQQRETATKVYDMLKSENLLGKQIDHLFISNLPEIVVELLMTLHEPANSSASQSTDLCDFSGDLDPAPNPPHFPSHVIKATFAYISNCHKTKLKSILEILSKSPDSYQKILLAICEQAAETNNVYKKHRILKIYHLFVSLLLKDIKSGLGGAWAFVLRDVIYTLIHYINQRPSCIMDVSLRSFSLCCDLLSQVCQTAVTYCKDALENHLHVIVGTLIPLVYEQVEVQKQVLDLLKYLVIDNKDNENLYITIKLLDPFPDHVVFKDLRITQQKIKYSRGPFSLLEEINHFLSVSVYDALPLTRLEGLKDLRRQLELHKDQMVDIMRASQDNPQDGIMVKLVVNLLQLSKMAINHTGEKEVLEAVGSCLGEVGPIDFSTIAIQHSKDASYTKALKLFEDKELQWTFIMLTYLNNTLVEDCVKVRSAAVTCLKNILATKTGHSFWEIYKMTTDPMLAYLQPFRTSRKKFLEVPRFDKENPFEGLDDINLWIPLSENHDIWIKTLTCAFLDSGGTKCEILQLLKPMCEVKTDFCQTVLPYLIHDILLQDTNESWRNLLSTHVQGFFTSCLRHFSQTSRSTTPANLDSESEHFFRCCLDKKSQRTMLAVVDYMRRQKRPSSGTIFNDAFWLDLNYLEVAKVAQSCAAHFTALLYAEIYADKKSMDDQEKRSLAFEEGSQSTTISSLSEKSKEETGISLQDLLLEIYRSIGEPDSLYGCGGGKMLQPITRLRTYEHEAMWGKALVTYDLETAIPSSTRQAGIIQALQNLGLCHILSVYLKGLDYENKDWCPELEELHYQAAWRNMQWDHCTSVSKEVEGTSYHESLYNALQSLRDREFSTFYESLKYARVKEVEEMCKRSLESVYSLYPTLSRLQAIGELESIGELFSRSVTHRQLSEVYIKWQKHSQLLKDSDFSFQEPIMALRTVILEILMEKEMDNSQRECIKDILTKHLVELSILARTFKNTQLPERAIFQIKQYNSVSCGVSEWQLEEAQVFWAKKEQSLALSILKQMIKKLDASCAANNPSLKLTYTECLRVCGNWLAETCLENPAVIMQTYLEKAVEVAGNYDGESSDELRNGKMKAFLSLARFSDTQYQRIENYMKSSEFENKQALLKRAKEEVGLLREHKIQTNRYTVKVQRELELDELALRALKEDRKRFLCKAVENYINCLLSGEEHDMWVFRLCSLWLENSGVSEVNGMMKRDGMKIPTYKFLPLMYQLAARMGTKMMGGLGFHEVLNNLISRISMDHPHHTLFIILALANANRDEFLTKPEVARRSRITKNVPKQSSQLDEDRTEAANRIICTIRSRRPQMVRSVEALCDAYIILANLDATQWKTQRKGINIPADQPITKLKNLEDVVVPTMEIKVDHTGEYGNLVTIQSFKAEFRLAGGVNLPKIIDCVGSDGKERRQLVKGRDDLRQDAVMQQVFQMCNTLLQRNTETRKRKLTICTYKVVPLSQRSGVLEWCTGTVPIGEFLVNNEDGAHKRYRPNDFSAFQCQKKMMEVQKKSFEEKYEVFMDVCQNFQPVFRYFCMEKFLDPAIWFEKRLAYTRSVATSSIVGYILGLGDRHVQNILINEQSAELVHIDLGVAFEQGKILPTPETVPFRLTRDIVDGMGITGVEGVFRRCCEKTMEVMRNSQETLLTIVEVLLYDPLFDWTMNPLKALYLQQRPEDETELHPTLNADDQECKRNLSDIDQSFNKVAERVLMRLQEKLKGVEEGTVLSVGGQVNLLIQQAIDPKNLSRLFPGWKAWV
UniProt Q9UBP0: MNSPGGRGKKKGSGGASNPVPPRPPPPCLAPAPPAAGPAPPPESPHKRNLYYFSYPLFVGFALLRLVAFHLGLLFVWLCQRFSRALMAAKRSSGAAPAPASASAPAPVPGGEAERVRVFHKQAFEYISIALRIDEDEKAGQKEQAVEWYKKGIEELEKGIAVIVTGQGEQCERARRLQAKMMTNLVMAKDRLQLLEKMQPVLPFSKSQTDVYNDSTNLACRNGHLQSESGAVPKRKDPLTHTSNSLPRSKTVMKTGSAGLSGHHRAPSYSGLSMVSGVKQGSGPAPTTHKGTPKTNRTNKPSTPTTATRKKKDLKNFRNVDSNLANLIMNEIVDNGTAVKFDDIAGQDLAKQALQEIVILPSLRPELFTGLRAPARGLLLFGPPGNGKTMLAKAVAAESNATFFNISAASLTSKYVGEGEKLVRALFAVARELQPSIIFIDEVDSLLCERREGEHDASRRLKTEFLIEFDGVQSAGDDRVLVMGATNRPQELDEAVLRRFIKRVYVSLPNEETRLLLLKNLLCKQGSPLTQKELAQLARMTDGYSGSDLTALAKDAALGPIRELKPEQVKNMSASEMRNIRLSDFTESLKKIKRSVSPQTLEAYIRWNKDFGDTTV

Results are given in words; binding and its absence hold for the method and conditions named. Binding seen in cells or lysates may run through a third protein. Binding can be weak; no strength is given.

Assay [1] addresses T1, collapsin response mediator protein 5 (CRMP5) (human (endogenous in SH-SY5Y)) (UniProt Q9BPU6).
T1 sequence: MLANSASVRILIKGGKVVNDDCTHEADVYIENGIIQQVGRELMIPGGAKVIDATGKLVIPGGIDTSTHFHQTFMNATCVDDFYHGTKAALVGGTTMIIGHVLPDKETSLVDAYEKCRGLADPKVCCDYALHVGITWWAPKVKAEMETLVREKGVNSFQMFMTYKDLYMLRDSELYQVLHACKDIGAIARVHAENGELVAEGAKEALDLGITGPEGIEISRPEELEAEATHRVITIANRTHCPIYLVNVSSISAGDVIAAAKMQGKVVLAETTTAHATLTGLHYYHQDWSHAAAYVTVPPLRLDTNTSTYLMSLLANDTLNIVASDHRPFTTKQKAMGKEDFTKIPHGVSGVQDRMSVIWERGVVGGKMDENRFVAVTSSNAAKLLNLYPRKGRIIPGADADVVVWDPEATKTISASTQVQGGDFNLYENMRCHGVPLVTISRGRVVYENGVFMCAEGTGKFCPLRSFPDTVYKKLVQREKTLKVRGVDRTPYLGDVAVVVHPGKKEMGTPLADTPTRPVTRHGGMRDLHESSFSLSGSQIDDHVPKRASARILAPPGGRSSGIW
The assay is described as follows: co-IP.

The target of assay [2] is Ataxia Telangiectasia Mutated (ATM) (human (endogenous in SH-SY5Y)) (UniProt Q13315). Briefly: co-IP.

Regarding Spastin (SPAST) (from UniProt Q9UBP0), the binding result in assay [1] and in assay [2] was “binds” throughout.
